Results: patent publication EP3344659B1
These are yes or no findings as the source states them, for the method shown. Some results given as binding are weak or reduced against the parent protein; the word gives no strength. Values belong to the binder of their own block, whether it stands above or below them.

By UniProt entry, the sequences of proteins in these tests, tags left out. Where a name states a change or a piece, a line headed by the entry shows the natural chain unless it says otherwise.
UniProt P02671: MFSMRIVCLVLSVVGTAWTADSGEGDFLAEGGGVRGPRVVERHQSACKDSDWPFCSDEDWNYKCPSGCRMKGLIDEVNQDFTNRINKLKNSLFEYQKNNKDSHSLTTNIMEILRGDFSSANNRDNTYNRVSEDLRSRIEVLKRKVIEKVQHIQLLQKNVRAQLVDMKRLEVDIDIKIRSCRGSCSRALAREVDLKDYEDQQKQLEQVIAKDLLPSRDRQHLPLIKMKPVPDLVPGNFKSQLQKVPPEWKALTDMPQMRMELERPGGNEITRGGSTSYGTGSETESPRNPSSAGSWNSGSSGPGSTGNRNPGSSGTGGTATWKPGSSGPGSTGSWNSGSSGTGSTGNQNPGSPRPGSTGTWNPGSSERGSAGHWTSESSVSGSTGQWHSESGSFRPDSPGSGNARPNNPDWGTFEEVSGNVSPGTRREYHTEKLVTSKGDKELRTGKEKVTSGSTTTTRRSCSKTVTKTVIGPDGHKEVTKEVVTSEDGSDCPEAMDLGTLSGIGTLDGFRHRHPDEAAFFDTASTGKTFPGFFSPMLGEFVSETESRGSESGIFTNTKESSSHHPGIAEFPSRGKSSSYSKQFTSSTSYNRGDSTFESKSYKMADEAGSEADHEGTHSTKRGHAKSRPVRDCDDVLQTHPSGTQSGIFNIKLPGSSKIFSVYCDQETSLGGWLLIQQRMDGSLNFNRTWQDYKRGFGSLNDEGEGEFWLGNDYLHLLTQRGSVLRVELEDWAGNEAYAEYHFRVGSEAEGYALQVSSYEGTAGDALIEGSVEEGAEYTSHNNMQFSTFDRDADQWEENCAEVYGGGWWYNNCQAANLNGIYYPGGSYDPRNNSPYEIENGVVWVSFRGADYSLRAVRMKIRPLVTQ
UniProt P02675: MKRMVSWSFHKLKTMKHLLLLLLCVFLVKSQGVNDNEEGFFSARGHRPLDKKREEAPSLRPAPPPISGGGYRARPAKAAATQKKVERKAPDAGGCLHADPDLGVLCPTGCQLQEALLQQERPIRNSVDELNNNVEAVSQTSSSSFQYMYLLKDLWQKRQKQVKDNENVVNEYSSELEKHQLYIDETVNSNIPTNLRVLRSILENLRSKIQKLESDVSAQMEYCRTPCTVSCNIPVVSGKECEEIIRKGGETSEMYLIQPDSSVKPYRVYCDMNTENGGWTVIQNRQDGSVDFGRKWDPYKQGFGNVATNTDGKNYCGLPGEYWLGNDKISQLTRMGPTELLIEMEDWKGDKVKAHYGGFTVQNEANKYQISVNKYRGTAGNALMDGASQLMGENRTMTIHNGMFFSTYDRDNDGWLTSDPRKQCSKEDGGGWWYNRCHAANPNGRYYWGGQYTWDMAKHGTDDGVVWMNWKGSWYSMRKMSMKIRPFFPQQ
UniProt P02679: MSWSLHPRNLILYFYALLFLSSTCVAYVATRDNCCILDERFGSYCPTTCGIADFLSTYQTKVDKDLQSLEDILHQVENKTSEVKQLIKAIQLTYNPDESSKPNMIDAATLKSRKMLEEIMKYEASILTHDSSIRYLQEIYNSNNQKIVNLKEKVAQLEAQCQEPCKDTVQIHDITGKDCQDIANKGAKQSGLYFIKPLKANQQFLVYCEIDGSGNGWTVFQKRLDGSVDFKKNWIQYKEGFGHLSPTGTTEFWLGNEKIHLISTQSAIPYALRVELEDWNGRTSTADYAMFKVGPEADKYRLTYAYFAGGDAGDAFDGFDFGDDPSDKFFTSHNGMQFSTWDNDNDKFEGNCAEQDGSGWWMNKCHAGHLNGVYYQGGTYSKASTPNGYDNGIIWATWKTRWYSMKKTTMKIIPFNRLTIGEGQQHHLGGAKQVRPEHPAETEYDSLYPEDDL

How the values were obtained:
human fibrin (human) [1] = target: T1, human fibrin (human) (UniProt P02671+P02675+P02679); assay: ELISA on thrombin-treated fibrin plate
human fibrin (human) [2] = target: T1, human fibrin (human); assay: fibrin-coated plate, wash, then chromogenic plasminogen activation read-out (OD405)

binding (human fibrin (human) [1]): binds
B1: 102-10 scFv specific for human fibrin (scFv)
scFv: DIQMTQSPSSLSASLGGKVTITCKASQDINKYIAWFQHKPGKGPRLLIHYTSTLQPGIPSRFSGSGSGRDYSFSISNLEPEDLATYYCLQYDNLTWTFGGGTKLEIKRGSTSGSGKPGSGEGSTKGQIQLVQSGPELKKPGETVKISCKASGYTFTNYGMNWVKQAPGKGLKWMGWINTYTGEATYADDFKGRFAFSLETSANTAYVQINNLKNEDTATYFCARLMDYWGQGTSVTVSSGGGGSGGGGSC

binding (human fibrin (human) [2]): binds
B2: (reteplase)-(scFv α fibrin) (protein)
chain: SYQGNSDCYFGNGSAYRGTHSLTESGASCLPWNSMILIGKVYTAQNPSAQALGLGKHNYCRNPDGDAKPWCHVLKNRRLTWEYCDVPSCSTCGLRQYSQPQFRIKGGLFADIASHPWQAAIFAKHRRSPGERFLCGGILISSCWILSAAHCFQERFPPHHLTVILGRTYRVVPGEEEQKFEVEKYIVHKEFDDDTYDNDIALLQLKSDSSRCAQESSVVRTVCLPPADLQLPDWTECELSGYGKHEALSPFYSERLKEAHVRLYPSSRCTSQHLLNRTVTDNMLCAGDTRSGGPQANLHDACQGDSGGPLVCLNDGRMTLVGIISWGLGCGQKDVPGVYTKVTNYLDWIRDNMRPASGGGGSGGGGSGGGGSDIQMTQSPSSLSASLGGKVTITCKASQDINKYIAWFQHKPGKGPRLLIHYTSTLQPGIPSRFSGSGSGRDYSFSISNLEPEDLATYYCLQYDNLTWTFGGGTKLEIKRGSTSGSGKPGSGEGSTKGQIQLVQSGPELKKPGETVKISCKASGYTFTNYGMNWVKQAPGKGLKWMGWINTYTGEATYADDFKGRFAFSLETSANTAYVQINNLKNEDTATYFCARLMDYWGQGTSVTVSS
